At least one compound was matched to its structure with a doubt left.
Tests used:
Tfam = Tfam gene expression in aorta of DKO mice (qPCR)
Cox4i1 = Cox4i1 gene expression in aorta of DKO mice (qPCR); conditions: more than weight restriction and fenofibrate treatment

CN(CCOc1ccc(CC2SC(=O)NC2=O)cc1)c1ccccn1 (centres unmarked) [Rosiglitazone, rosiglitazone]
Effect on Tfam in aorta (in words) (Tfam): increased
Effect on Cox4i1 in aorta (in words) (Cox4i1): increased

Reference: patent publication US10704097B2, “Oxidative stress and cardiovascular disease events” (KATHOLIEKE UNIVERSITEIT LEUVEN, priority 2014, dated 2020)
